Among the data in article PMC13236601 are binding values, retold here.

Results are given in words; binding and its absence hold for the method and conditions named. A result given as binding can be weak or reduced; the word gives no strength.

This test addresses LypB (full-length, bacterial two-hybrid fusion) (C. crescentus). Description: two-hybrid; bacterial adenylate cyclase two-hybrid (Euromedex kit EUK001); E. coli BTH101 co-transformed with pKT25 and pUT18C fusions; each protein or domain tested in both T25 and T18 vectors; cultures spotted on McConkey agar, 30 °C, 24 h; three independent repeats.

For the substance “LypA (full-length, bacterial two-hybrid fusion) (from UniProt A0A0H3IFL3)”, the binding entry is given as “binds”.
